Values from PubChem BioAssay AID1159578 (Peter MacCallum Cancer Centre, 2015)

Test: 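Genome-wide hunt for genes controlling movement of lymphatic endothelial cells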 (primary screen)
Cells: human lymphatic endothelial cells
Knock-down reagent: siRNA pool against human genes, 40 nM
Timing: 48 h after transfection
Measured: 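High-content imaging of dye-stained cells in a scratch assay measures filled wound area and nuclei per well; duplicate means given as ratio to mock and robust z-score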
Scale: migration robust z-score: higher = faster migration into the scratch; nuclei per well: higher = more cells in the well
Active means: 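Pools averaging fewer than 3300 nuclei are never called; remaining pools count as changed when migration robust z lies outside -2 to 2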
Meaning of the calls: active = migration changed; inactive = no migration change, or too few cells
The deposit covers about 18,000 reagents; shown is a random part of them. About 1,030 of all reagents (5.7%) count as active. 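Inactive calls also include pools with fewer than 3300 nuclei, whose migration was not assessed.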 Raw values vary from plate to plate and are shown uncorrected. A number with no mark means an inactive call. Not all columns of the deposit are shown.

gene	migration robust z-score	nuclei per well, duplicate mean
NUP210 (GeneID 23225)	0.74	5798
GDF11 (GeneID 10220)	-0.49	5028
FRS3 (GeneID 10817)	-0.9	7306
EMC7 (GeneID 56851)	0.7	8041
PRKN (GeneID 5071)	-0.76	5169
COL2A1 (GeneID 1280)	2.68 (active)	5876
ANGPT2 (GeneID 285)	-2.93 (active)	5713
ZNF784 (GeneID 147808)	0.36	5890
ALPL (GeneID 249)	-0.44	5220
MSI1 (GeneID 4440)	0.34	5312
TTC29 (GeneID 83894)	-1.28	6220
DUSP9 (GeneID 1852)	-0.52	5072
ROBO2 (GeneID 6092)	-1.93	6052
JDP2 (GeneID 122953)	0.92	5897
CTHRC1 (GeneID 115908)	-0.04	5433
LRRC59 (GeneID 55379)	-0.71	5706
C11orf68 (GeneID 83638)	0.51	6014
IGSF8 (GeneID 93185)	0.48	6074
RAG2 (GeneID 5897)	-0.57	5788
KLHDC2 (GeneID 23588)	1.08	5144
IFT25 (GeneID 51668)	-1.13	4614
RAB22A (GeneID 57403)	-0.86	5708
DNASE1L1 (GeneID 1774)	0.73	6250
RAB4A (GeneID 5867)	0.94	6666
HENMT1 (GeneID 113802)	-0.12	5957
ORAI3 (GeneID 93129)	-0.7	8720
NELFCD (GeneID 51497)	-1.61	3024
UBR4 (GeneID 23352)	0.66	5926
TIMCC (GeneID 84908)	0.62	4542
H2BC12 (GeneID 85236)	0.16	6398
RCE1 (GeneID 9986)	-0.83	5211
MAGEA11 (GeneID 4110)	0.49	5654
KRT72 (GeneID 140807)	0.48	5899
ZIM2 (GeneID 23619)	2.06 (active)	5860
LZTS1 (GeneID 11178)	-0.83	4248
CHRNA7 (GeneID 1139)	-0.6	4564
PKD2L1 (GeneID 9033)	-0.78	4104
CCHCR1 (GeneID 54535)	0.92	5799
TBK1 (GeneID 29110)	-0.03	4334
TAB2 (GeneID 23118)	0.9	6808
NR5A1 (GeneID 2516)	-1.12	3687
OR8B2 (GeneID 26595)	-0.84	5960
SEMA6C (GeneID 10500)	-0.27	5496
B3GNT2 (GeneID 10678)	0.67	6056
PLXNB1 (GeneID 5364)	0.83	5241
HDAC1 (GeneID 3065)	-1.9	4290
UNC93B1 (GeneID 81622)	0.26	5548
TMEM203 (GeneID 94107)	-0.57	5940
PRR18 (GeneID 285800)	-0.57	5694
ACSBG2 (GeneID 81616)	-1.01	5372
TPSD1 (GeneID 23430)	0.78	6292
STEAP1 (GeneID 26872)	0.76	5306
EFNB2 (GeneID 1948)	-0.81	5248
CCDC134 (GeneID 79879)	0.24	6550
RASA4 (GeneID 10156)	1.5	6570
CSF2RA (GeneID 1438)	0.91	5324
OR5B21 (GeneID 219968)	-1.03	5590
MB21D2 (GeneID 151963)	1.58	6330
COPS6 (GeneID 10980)	-0.14	5520
COXFA4 (GeneID 4697)	0.55	5379
MT1M (GeneID 4499)	-0.81	5166
PLGLB1 (GeneID 5343)	0.2	5114
NCS1 (GeneID 23413)	-2.91 (active)	4434
ZBTB1 (GeneID 22890)	1.16	5076
SYPL2 (GeneID 284612)	-1.69	5676
CLCN2 (GeneID 1181)	-0.08	5020
DROSHA (GeneID 29102)	-0.31	5679
TMEM60 (GeneID 85025)	-0.05	5510
CHRNA9 (GeneID 55584)	1.04	4764
FLYWCH1 (GeneID 84256)	0.44	5048
GLB1L (GeneID 79411)	0.46	6340
SPAG4 (GeneID 6676)	0.42	6655
LPGAT1 (GeneID 9926)	-0.6	6254

Ordered by “migration robust z-score” (lowest first): 5 of the entries above.
gene	migration robust z-score	nuclei per well, duplicate mean
RCE1 (GeneID 9986)	-0.83	5211
H2BC12 (GeneID 85236)	0.16	6398
KRT72 (GeneID 140807)	0.48	5899
MAGEA11 (GeneID 4110)	0.49	5654
TIMCC (GeneID 84908)	0.62	4542
